The assay has as its target REXO2 with alanine substitution of Phe215 and Trp179 (dimerization-deficient variant) (human) (UniProt Q9Y3B8). The experiment in a line: SEC-MALS; gel filtration coupled with multi-angle light scattering; both purified. For orientation: In gel filtration, larger molecules generally elute earlier.

In paper PMC7261184, “Human REXO2 controls short mitochondrial RNAs generated by mtRNA processing and decay machinery to prevent accumulation of double-stranded RNA” (Nucleic Acids Research, 2020) one finds binding data, which are given here for one molecule.

No constants are given. Whether binding was seen depends on the method and setting.

B1: REXO2 with alanine substitution of Phe215 and Trp179 (dimerization-deficient variant) (enzyme, UniProt Q9Y3B8 29-237)
chain: GGAAMAAGESMAQRMVWVDLEMTGLDIEKDQIIEMACLITDSDLNILAEGPNLIIKQPDELLDSMSDWCKEHHGKSGLTKAVKESTITLQQAEYEFLSFVRQQTPPGLCPLAGNSVHEDKKFLDKYMPQFMKHLHYRIIDVSTVKELCRRAYPEEYEFAPKKAASHRALDDISESIKELQFYRNNIAKKKIDEKKRKIIENGENEKTVS
For the molecule B1, the binding entry is “no binding”.
